{
  "source": "patent US6599878B2",
  "about": "“Superoxygenating blood substitutes based on hemoglobin and dihydropyidine compositions” (priority 1992, dated 2003)",
  "conditions": "arterial plasma, n = 8",
  "data": [
    {"substance": "HbHD: Purified canine hemoglobin (10 gm %) used for isovolemic hemodilution", "values": [
      {"measurement": "Epinephrine", "value": "219 ± 14", "unit": "pg/mL"},
      {"measurement": "Norepinephrine", "value": "125 ± 12", "unit": "pg/mL"}
    ]}
  ]
}
